In the test the target is FLAG-p62 (human) (UniProt Q13501). Nature of the test: co-IP; Hep3B cells transfected with FLAG-p62; lysates immunoprecipitated with an anti-FLAG antibody; immunoblotting with anti-FLAG, anti-Hsc70 and anti-Parkin antibodies. For orientation: Immunoblotting shows a protein as a band on a membrane.

These are yes or no findings as the source states them, for the method shown. Binding seen in cells or lysates may run through a third protein. Some results given as binding are weak or reduced against the parent protein; the word gives no strength.

For “endogenous Parkin (from UniProt O60260-1 1-465) (enzyme)”, the binding result is given as “binds”.
Take “heat shock cognate 71 kDa protein (Hsc70) (from UniProt P11142-1 1-646)”: the binding entry is on record as “binds”.

Values taken from PMC9731985.
